Measurements: the supplement of paper PMC12819154, “High-throughput peptide-centric local stability assay extends protein–ligand identification to membrane proteins, tissues and bacteria” (Nature Structural & Molecular Biology, 2025)
This is one part of the list. Most values lie at the level of the controls, where differences are scatter.

By UniProt entry, the sequences of proteins in these tests, tags left out. Where a name states a change or a piece, a line headed by the entry shows the natural chain unless it says otherwise.
UniProt P56873: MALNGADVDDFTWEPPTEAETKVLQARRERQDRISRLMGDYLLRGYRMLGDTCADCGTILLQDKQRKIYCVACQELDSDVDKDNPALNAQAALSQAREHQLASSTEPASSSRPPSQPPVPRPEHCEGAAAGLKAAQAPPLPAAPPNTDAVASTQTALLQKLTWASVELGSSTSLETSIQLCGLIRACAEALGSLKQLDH
UniProt P61759, whole entry: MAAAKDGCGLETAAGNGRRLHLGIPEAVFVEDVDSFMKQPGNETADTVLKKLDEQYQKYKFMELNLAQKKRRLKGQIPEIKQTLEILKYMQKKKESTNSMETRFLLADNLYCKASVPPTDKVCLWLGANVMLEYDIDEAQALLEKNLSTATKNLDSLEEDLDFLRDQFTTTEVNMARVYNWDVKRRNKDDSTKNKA
UniProt P63073, whole entry: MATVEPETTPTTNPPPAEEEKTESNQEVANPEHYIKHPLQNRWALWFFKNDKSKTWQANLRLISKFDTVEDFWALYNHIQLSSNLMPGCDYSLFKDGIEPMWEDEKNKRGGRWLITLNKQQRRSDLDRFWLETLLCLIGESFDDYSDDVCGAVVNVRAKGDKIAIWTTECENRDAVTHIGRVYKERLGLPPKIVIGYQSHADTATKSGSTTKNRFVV
UniProt P56213: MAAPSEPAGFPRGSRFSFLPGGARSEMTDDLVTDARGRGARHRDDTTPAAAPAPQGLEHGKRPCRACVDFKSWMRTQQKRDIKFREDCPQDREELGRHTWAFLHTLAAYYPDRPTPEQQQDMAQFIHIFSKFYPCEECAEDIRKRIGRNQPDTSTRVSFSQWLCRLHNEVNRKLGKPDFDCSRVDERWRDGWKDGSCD
UniProt P55258: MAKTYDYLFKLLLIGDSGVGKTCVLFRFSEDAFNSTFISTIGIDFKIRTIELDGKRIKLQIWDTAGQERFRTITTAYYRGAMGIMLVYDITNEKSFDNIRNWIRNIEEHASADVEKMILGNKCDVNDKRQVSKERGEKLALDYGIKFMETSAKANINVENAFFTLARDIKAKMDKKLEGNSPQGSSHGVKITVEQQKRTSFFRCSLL
UniProt P58710: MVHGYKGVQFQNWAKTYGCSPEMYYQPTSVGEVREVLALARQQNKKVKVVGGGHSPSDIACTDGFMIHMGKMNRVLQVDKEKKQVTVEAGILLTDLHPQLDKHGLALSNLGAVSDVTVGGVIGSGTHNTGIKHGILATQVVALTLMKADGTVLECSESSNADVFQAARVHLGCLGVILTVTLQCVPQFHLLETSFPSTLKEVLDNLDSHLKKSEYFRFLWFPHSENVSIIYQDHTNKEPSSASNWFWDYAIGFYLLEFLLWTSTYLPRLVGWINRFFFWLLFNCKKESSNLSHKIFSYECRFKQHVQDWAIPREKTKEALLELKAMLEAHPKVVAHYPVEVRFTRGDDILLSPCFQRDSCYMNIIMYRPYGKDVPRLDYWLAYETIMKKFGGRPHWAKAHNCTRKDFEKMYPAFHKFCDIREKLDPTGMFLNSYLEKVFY
UniProt P54276: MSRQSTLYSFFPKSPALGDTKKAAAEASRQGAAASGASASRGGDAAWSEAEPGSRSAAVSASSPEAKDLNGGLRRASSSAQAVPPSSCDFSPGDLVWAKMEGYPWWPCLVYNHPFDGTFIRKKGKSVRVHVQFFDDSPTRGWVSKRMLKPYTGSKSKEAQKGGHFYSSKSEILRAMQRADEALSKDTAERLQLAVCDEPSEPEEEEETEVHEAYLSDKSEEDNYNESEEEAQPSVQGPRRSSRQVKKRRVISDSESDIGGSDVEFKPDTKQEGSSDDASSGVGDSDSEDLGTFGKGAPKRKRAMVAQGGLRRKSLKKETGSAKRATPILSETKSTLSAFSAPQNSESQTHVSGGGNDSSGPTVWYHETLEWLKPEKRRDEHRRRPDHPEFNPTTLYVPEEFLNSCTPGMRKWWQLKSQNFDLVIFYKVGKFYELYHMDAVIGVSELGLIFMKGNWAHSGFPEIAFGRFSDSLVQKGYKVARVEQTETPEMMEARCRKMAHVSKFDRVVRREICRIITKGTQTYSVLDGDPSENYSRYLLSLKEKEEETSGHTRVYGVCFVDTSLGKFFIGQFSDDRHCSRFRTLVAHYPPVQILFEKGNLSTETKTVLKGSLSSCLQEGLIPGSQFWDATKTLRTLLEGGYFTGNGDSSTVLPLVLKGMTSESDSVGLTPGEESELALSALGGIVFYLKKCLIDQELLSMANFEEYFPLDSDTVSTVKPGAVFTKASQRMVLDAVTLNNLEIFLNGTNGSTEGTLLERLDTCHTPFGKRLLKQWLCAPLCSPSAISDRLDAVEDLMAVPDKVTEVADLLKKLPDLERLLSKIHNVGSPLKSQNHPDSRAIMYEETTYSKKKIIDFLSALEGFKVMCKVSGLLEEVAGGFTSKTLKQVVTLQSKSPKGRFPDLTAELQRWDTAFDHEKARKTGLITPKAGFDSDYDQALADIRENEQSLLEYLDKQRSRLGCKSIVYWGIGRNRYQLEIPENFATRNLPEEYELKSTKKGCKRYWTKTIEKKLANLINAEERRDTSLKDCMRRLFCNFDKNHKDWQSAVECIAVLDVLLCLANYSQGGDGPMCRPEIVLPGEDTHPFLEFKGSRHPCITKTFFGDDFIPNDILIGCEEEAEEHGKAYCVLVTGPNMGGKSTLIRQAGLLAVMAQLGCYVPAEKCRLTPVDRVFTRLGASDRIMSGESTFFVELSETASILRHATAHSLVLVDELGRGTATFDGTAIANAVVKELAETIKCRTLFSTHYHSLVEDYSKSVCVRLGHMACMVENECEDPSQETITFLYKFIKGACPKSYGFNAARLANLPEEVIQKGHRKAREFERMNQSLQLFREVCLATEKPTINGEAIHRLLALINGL
UniProt P63139: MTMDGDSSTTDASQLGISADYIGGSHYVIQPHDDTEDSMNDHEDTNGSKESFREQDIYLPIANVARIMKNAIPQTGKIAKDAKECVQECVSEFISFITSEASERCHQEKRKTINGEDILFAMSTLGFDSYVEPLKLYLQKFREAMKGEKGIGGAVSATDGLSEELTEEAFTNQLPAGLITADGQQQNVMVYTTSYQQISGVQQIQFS
UniProt P58064: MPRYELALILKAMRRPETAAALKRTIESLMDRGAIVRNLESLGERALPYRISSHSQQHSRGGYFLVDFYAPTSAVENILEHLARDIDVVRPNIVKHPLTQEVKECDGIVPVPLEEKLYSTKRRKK
UniProt P58468: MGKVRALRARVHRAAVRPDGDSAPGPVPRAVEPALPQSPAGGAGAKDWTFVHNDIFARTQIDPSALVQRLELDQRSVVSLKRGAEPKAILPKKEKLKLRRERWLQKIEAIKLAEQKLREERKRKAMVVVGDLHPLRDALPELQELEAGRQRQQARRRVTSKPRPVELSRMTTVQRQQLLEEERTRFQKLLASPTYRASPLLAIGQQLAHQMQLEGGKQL
UniProt P54728: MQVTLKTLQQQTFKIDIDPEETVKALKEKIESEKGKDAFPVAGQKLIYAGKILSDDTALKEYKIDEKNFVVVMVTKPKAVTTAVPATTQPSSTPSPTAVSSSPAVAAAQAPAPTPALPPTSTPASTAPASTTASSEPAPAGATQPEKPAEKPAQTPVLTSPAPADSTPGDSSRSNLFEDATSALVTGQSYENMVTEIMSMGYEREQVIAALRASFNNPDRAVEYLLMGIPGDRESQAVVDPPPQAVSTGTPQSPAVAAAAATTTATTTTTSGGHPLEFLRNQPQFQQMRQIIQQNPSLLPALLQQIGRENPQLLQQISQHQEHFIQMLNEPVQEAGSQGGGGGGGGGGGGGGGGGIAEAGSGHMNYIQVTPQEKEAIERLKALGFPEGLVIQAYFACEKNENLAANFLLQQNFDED
UniProt P61750: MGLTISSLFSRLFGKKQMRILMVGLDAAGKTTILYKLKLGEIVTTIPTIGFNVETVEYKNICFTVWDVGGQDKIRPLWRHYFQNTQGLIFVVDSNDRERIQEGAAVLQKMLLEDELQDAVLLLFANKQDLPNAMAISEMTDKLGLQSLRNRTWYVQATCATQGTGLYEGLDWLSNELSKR

Compound: CN[C@@H]1C[C@H]2O[C@@](C)([C@@H]1OC)n1c3ccccc3c3c4c(c5c6ccccc6n2c5c31)C(=O)NC4 [staurosporine]
Assay: log2 fold change of tryptic peptide abundance, ligand vs vehicle (limited proteolysis) (log2 ratio); higher = more trypsin-susceptible (destabilized)
Conditions: ligand concentration: 20 uM; sample: mouse liver crude lysate; replicate design: treated separately

Row | Target | log2 fold change
1 | UniProt P58059 (peptide sequence: YYEKPCR, peptide start residue: 44) | -0.297
2 | UniProt P56873 (peptide sequence: ACAEALGSLK, peptide start residue: 186) | -0.045
3 | UniProt P61759 (peptide sequence: KKESTNSMETR, peptide start residue: 93) | -0.437
4 | UniProt P63073 (peptide sequence: WALWFFK, peptide start residue: 43) | -1.38
5 | UniProt P56213 (peptide sequence: SEMTDDLVTDAR, peptide start residue: 25) | 0.0368
6 | UniProt P55258 (peptide sequence: LEGNSPQGSSHGVK, peptide start residue: 177) | -0.284
7 | UniProt P58710 (peptide sequence: AMLEAHPK, peptide start residue: 325) | -0.31
8 | UniProt P54276 (peptide sequence: MAHVSKFDR, peptide start residue: 498) | -0.45
9 | UniProt P63139 (peptide sequence: ESFREQDIYLPIANVAR, peptide start residue: 50) | 0.0691
10 | UniProt P58064 (peptide sequence: PRYELALILK, peptide start residue: 2) | 0.393
11 | UniProt P58468 (peptide sequence: VTSKPRPVELSR, peptide start residue: 158) | 0.107
12 | UniProt P54728 (peptide sequence: ASFNNPDR, peptide start residue: 213) | 0.151
13 | UniProt P61750 (peptide sequence: NICFTVWDVGGQDKIRPLWR, peptide start residue: 60) | -0.133

Two entries from above, set out differently:
Row,Target,log2 fold change
7,"UniProt P58710 (peptide sequence: AMLEAHPK, peptide start residue: 325)",-0.31
13,"UniProt P61750 (peptide sequence: NICFTVWDVGGQDKIRPLWR, peptide start residue: 60)",-0.133
